Some of these results come from one statement about several compounds together.
Target: recombinant human AMPK complex 1 (containing α1β1γ1) (Homo sapiens, UniProt Q13131+Q9Y478)
Assay: […] (in vitro AMPK activation assay)
Format: biochemical
Conditions: recombinant human AMPK complex 1 (α1β1γ1)

Amino acid sequences for entries named in this document (tags omitted). A change or cut given only in a name is not applied to a line headed by its entry.
UniProt Q13131: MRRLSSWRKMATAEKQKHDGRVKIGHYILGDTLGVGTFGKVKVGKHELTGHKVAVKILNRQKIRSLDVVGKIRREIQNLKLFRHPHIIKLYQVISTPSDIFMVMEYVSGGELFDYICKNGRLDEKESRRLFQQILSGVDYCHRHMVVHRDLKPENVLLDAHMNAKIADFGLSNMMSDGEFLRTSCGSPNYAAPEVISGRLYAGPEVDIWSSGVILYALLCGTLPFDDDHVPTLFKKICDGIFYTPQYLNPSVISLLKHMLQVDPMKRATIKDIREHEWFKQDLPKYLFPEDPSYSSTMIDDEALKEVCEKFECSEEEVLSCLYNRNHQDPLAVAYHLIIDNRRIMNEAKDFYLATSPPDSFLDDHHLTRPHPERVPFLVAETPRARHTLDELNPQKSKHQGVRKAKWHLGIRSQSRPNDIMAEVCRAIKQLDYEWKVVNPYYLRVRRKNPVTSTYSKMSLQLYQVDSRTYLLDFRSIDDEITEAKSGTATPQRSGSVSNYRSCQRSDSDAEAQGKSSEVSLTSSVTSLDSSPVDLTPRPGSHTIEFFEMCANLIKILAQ
UniProt Q9Y478: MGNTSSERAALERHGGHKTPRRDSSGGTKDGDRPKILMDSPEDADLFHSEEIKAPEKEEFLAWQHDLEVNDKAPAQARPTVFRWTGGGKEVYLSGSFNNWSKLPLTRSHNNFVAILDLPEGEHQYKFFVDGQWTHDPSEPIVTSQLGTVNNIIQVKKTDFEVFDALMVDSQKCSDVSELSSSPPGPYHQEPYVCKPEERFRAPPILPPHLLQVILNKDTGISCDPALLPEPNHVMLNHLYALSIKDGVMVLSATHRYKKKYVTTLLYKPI

Row | Compound | EC50 [µM]
1 | Cc1ccc(Oc2nc3cc(-c4ccc(-c5ccccn5)cc4)c(Cl)cc3[nH]2)cc1C(=O)O [Example 166, 5-[6-Chloro-5-(4-pyridin-2-yl-phenyl)-1H-benzoimidazol-2-yloxy]-2-methyl-benzoic acid] | < 10
2 | COC(=O)c1cc(Oc2nc3cc(-c4ccc(-c5ccncc5)cc4)c(Cl)cc3[nH]2)ccc1C [Example 167, 5-[6-Chloro-5-(4-pyridin-4-yl-phenyl)-1H-benzoimidazol-2-yloxy]-2-methyl-benzoic acid methyl ester] | < 10
3 | Cc1ccc(Oc2nc3cc(-c4ccc(-c5ccncc5)cc4)c(Cl)cc3[nH]2)cc1C(=O)O [Example 168] | < 10
4 | Cc1ccc(Oc2nc3cc(-c4ccc(-c5cccnc5)cc4)c(Cl)cc3[nH]2)cc1C(=O)O [Example 169, 5-[6-Chloro-5-(4-pyridin-3-yl-phenyl)-1H-benzoimidazol-2-yloxy]-2-methyl-benzoic acid] | < 10
5 | COC(=O)c1cc(Oc2nc3cc(-c4ccc(-c5ccc(=O)n(C)c5)cc4)c(Cl)cc3[nH]2)ccc1C [Example 170, 5-{6-Chloro-5-[4-(1-methyl-6-oxo-1,6-dihydro-pyridin-3-yl)-pheny1]-1H-benzoimidazol-2-yloxy}-2-methyl-benzoic acid methyl ester] | < 10
6 | COC(=O)c1cc(Oc2nc3cc(-c4ccc(-c5cccnc5)cc4)c(Cl)cc3[nH]2)ccc1C [Example 171, 5-[6-Chloro-5-(4-pyridin-3-yl-phenyl)-1H-benzoimidazol-2-yloxy]-2-methyl-benzoic acid methyl ester] | < 10
7 | COc1ccc(-c2ccc(-c3cc4nc(Oc5ccc(C)c(C(=O)O)c5)[nH]c4cc3Cl)cc2)cc1 [Example 172, 5-[6-Chloro-5-(4′-methoxy-biphenyl-4-yl)-1H-benzoimidazol-2-yloxy]-2-methyl-benzoic acid] | < 10
8 | Cc1ccc(Oc2nc3cc(-c4ccc(N5CCOCC5)nc4)c(Cl)cc3[nH]2)cc1C(=O)O [Example 173, 5-[6-Chloro-5-(6-morpholin-4-yl-pyridin-3-yl)-1H-benzoimidazol-2-yloxy]-2-methyl-benzoic acid] | < 10
9 | Cc1ccc(Oc2nc3cc(-c4ccc(N5CCNCC5)nc4)c(Cl)cc3[nH]2)cc1C(=O)O [Example 174, 5-[6-Chloro-5-(6-piperazin-1-yl-pyridin-3-yl)-1H-benzoimidazol-2-yloxy]-2-methyl-benzoic acid] | < 10
10 | Cc1ccc(Oc2nc3cc(-c4ccc(N5CCN(C(=O)OC(C)(C)C)CC5)nc4)c(Cl)cc3[nH]2)cc1C(=O)O [Example 175, 4-{5-[2-(3-Carboxy-4-methyl-phenoxy)-6-chloro-1H-benzoimidazol-5-yl]-pyridin-2-yl}-piperazine-1-carboxylic acid tert-butyl ester] | < 10
11 | Cc1ccc(Oc2nc3cc(-c4ccc(-c5nnn[nH]5)cc4)c(Cl)cc3[nH]2)cc1C(=O)O [Example 176, 5-{6-Chloro-5-[4-(1H-tetrazol-5-yl)-phenyl]-1H-benzoimidazol-2-yloxy}-2-methyl-benzoic acid] | < 10
12 | Cc1ccc(Oc2nc3cc(-c4ccc(/C(N)=N/O)cc4)c(Cl)cc3[nH]2)cc1C(=O)O [Example 177, 5-{6-Chloro-5-[4-(N-hydroxycarbamimidoyl)-phenyl]-1H-benzoimidazol-2-yloxy}-2-methyl-benzoic acid] | < 10
13 | Cc1ccc(Oc2nc3cc(-c4ccc(N5CCNCC5)cc4)c(Cl)cc3[nH]2)cc1C(=O)O [Example 178, 5-[6-Chloro-5-(4-piperazin-1-yl-phenyl)-1H-benzoimidazol-2-yloxy]-2-methyl-benzoic acid] | < 10
14 | Cc1ccc(Oc2nc3cc(-c4ccc(N5CCOCC5)cc4)c(Cl)cc3[nH]2)cc1C(=O)O [Example 179, 5-[6-Chloro-5-(4-morpholin-4-yl-phenyl)-1H-benzoimidazol-2-yloxy]-2-methyl-benzoic acid] | < 10
15 | Cc1ccc(Oc2nc3cc(-c4ccc(C#N)cc4)c(Cl)cc3[nH]2)cc1C(=O)O [Example 180, 5-[6-Chloro-5-(4-cyano-phenyl)-1H-benzoimidazol-2-yloxy]-2-methyl-benzoic acid] | < 10
16 | Cc1ccc(Oc2nc3cc(C#Cc4ccc(C(=O)O)cc4)c(Cl)cc3[nH]2)cc1C(=O)O [Example 181, 5-[5-(4-Carboxy-phenylethynyl)-6-chloro-1H-benzoimidazol-2-yloxy]-2-methyl-benzoic acid] | < 10
17 | Cc1ccc(Oc2nc3cc(-c4ccc(C(C)(C)O)cc4)c(Cl)cc3[nH]2)cc1C(=O)O [Example 183, 5-({6-chloro-5-[4-(1-hydroxy-1-methylethyl)phenyl]-1H-benzimidazol-2-yl}oxy)-2-methylbenzoic acid] | < 10
18 | Cc1ccc(Oc2nc3cc(-c4ccc(-c5ccc(C(=O)O)cc5)cc4)c(F)cc3[nH]2)cc1C(=O)O [Example 184, 4′-[2-3-carboxy-4-methylphenoxy-6-fluoro-1H-benzimidazol-5-yl]biphenyl-4-carboxylic acid] | < 10
19 | Cc1ccc(Oc2nc3cc(-c4ccc(-c5cccc(F)c5)cc4)c(Cl)cc3[nH]2)cc1C(=O)O [Example 185, 5-{[6-chloro-5-(3′-fluorobiphenyl-4-yl)-1H-benzimidazol-2-yl]oxy}-2-methylbenzoic acid] | < 10

Row | Compound | EC50 [µM]
20 | Cc1ccc(Oc2nc3cc(-c4ccc(-c5cccc(Cl)c5)cc4)c(Cl)cc3[nH]2)cc1C(=O)O [Example 186, 5-{[6-chloro-5-(3′-chlorobiphenyl-4-yl)-1H-benzimidazol-2-yl]oxy}-2-methylbenzoic acid] | < 10
21 | COc1cccc(-c2ccc(-c3cc4nc(Oc5ccc(C)c(C(=O)O)c5)[nH]c4cc3Cl)cc2)c1 [Example 187, 5-{[6-chloro-5-(3′-methoxybiphenyl-4-yl)-1H-benzimidazol-2-yl]oxy}-2-methylbenzoic acid] | < 10
22 | Cc1ccc(Oc2nc3cc(-c4ccc(-c5ccc(O)nc5)cc4)c(Cl)cc3[nH]2)cc1C(=O)O [Example 188, 5-({6-chloro-5-[4-(6-hydroxypyridin-3-yl)phenyl]-1H-benzimidazol-2-yl}oxy)-2-methylbenzoic acid] | < 10
23 | Cc1ccc(Oc2nc3cc(-c4ccc(-c5ccccc5Cl)cc4)c(Cl)cc3[nH]2)cc1C(=O)O [Example 191, 5-{[6-chloro-5-(2′-chlorobiphenyl-4-yl)-1H-benzimidazol-2-yl]oxy}-2-methylbenzoic acid] | < 10
24 | Cc1ccc(Oc2nc3cc(-c4ccc(-c5ccccc5F)cc4)c(Cl)cc3[nH]2)cc1C(=O)O [Example 192, 5-{[6-chloro-5-(2′-fluorobiphenyl-4-yl)-1H-benzimidazol-2-yl]oxy}-2-methylbenzoic acid] | < 10
25 | Cc1ccc(Oc2nc3cc(-c4ccc(-c5ccccc5C)cc4)c(Cl)cc3[nH]2)cc1C(=O)O [Example 193, 5-{[6-chloro-5-(2′-methylbiphenyl-4-yl)-1H-benzimidazol-2-yl]oxy}-2-methylbenzoic acid] | < 10
26 | COc1ccccc1-c1ccc(-c2cc3nc(Oc4ccc(C)c(C(=O)O)c4)[nH]c3cc2Cl)cc1 [Example 194, 5-{[6-chloro-5-(2′-methoxybiphenyl-4-yl)-1H-benzimidazol-2-yl]oxy}-2-methylbenzoic acid] | < 10
27 | COC(=O)c1cc(Oc2nc3cc(-c4ccc(-c5ccccc5F)cc4)c(Cl)cc3[nH]2)ccc1C [Example 195, Methyl 5-{[6-chloro-5-(2′-fluorobiphenyl-4-yl)-1H-benzimidazol-2-yl]oxy}-2-methylbenzoate] | < 10
28 | COC(=O)c1cc(Oc2nc3cc(-c4ccc(-c5ccccc5Cl)cc4)c(Cl)cc3[nH]2)ccc1C [Example 196, Methyl 5-{[6-chloro-5-(2′-chlorobiphenyl-4-yl)-1H-benzimidazol-2-yl]oxy}-2-methylbenzoate] | < 10
29 | COC(=O)c1cc(Oc2nc3cc(-c4ccc(-c5ccccc5OC)cc4)c(Cl)cc3[nH]2)ccc1C [Example 197, Methyl 5-{[6-chloro-5-(2′-methoxybiphenyl-4-yl)-1H-benzimidazol-2-yl]oxy}-2-methylbenzoate] | < 10
30 | COC(=O)c1cc(Oc2nc3cc(-c4ccc(-c5ccccc5C)cc4)c(Cl)cc3[nH]2)ccc1C [Example 198, Methyl 5-{[6-chloro-5-(2′-methylbiphenyl-4-yl)-1H-benzimidazol-2-yl]oxy}-2-methylbenzoate] | < 10
31 | COc1ncccc1-c1ccc(-c2cc3nc(Oc4ccc(C)c(C(=O)O)c4)[nH]c3cc2Cl)cc1 [Example 199, 5-({6-chloro-5-[4-(2-methoxypyridin-3-yl)phenyl]-1-benzimidazol-2-yl}oxy)-2-methylbenzoic acid] | < 10
32 | COc1ccc(-c2ccc(-c3cc4nc(Oc5ccc(C)c(C(=O)O)c5)[nH]c4cc3Cl)cc2)cn1 [Example 201, 5-({6-chloro-5-[4-(6-methoxypyridin-3-yl)phenyl]-1H-benzimidazol-2-yl}oxy)-2-methylbenzoic acid] | < 10
33 | Cc1ccc(Oc2nc3cc(-c4ccc(-c5cn[nH]c5)cc4)c(Cl)cc3[nH]2)cc1C(=O)O [Example 202, 5-({6-chloro-5-[4-(1H-pyrazol-4-yl)phenyl]-1H-benzimidazol-2-yl}oxy)-2-methylbenzoic acid] | < 10
34 | Cc1ccc(Oc2nc3cc(-c4ccc(-c5c(C)n[nH]c5C)cc4)c(Cl)cc3[nH]2)cc1C(=O)O [Example 203, 5-({6-chloro-5-[4-(3,5-dimethyl-1H-pyrazol-4-yl)phenyl]-1H-benzimidazol-2-yl}oxy)-2-methylbenzoic acid] | < 10
35 | Cc1ccc(Oc2nc3cc(-c4ccc(-c5c(C)noc5C)cc4)c(Cl)cc3[nH]2)cc1C(=O)O [Example 204, 5-({6-chloro-5-[4-(3,5-dimethylisoxazol-4-yl)phenyl]-1H-benzimidazol-2-yl}oxy)-2-methylbenzoic acid] | < 10
36 | Cc1ccc(Oc2nc3cc(-c4ccc(-c5ccccc5N)cc4)c(Cl)cc3[nH]2)cc1C(=O)O [Example 205, 5-{[5-(2′-aminobiphenyl-4-yl)-6-chloro-1H-benzimidazol-2-yl]oxy}-2-methylbenzoic acid] | < 10
37 | CC(=O)NS(=O)(=O)c1cccc(Oc2nc3cc(-c4ccc(-c5ccccc5)cc4)c(Cl)cc3[nH]2)c1 [Example 206, N-Acetyl-3-(5-biphenyl-4-yl-6-chloro-1H-benzoimidazol-2-yloxy)-benzenesulfonamide] | < 10

Reference: patent US8394969B2, “Cyclic benzimidazole derivatives useful as anti-diabetic agents” (Merck Sharp & Dohme Corp., priority 2008, dated 2013)
